Results reported in patent US9486471B2, “Combination therapy for the treatment of cancer” (McMaster University, priority 2012, dated 2016).

Tested on: v1H9-Oct4-GFP neoplastic hPSC
Assay: Chemical screening of neoplastic hPSC reporter line (GFP / Hoechst, loss of pluripotency)
Type: cell-based, human
Settings: thioridazine vs fluphenazine and prochlorperazine
Protocol: In Vitro Culture Platform for Normal and Neoplastic hPSCs. Chemical screens involved v1H9-Oct4-GFP cells seeded at 5,000 cells per well in mouse embryonic fibroblast conditioned media (MEFCM) supplemented with 8 ng/ml bFGF. 24 hours later the media was exchanged for MEFCM with compounds at 10 μM and 0.1% DMSO, 0.1% DMSO (−BMP4) or 100 ng/ml of BMP4 and 0.1% DMSO (+BMP4) for 48 hours before being exchanged with fresh media with compound for a further 24 h (total compound treatment time 72 h) prior to being fixed and prepared for automated imaging and plate reader analysis. Confluent H9 & fibroblast-derived iPSC were seeded at 10,000 cells per well in MEFCM supplemented with 8 ng/ml bFGF. 24 hours later the cells were treated with compounds at 10 μM and 0.1% DMSO, 0.1% DMSO (−BMP4) or 100 ng/ml of BMP4 and 0.1% DMSO (+BMP4). […] On day 5, hPSC's were fixed and prepared for automated imaging and plate reader analysis. […]
Imaging Neoplastic hPSC. […] Images were acquired at 10× N.A with an Arrayscan HCS VTI Reader (Cellomics) by means of epi-fluorescence illumination and standard filter sets.
Image Analysis. […] For normal cell lines, the fraction of Alexa-Fluor-647-positive cells was quantified. Images and well-level data were stored and analysed in a Columbus Database (Perkin Elmer) and further data analysis, compounds registration and hit identification in ActivityBase (IDBS). […]

SMILES: CSc1ccc2c(c1)N(CCC1CCCCN1C)c1ccccc1S2 (racemic) [thioridazine, 10-{2-[(RS)-1-Methylpiperidin-2-yl]ethyl}-2-methylsulfanylphenothiazine]
- EC50 compared among the three phenothiazines: lowest EC50
